According to patent US20250333486A1, “Anti-HSP90 alpha antibody and uses thereof” (NATIONAL HEALTH RESEARCH INSTITUTES, priority 2021, published 2025):
No constants are given. Whether binding was seen depends on the method and setting. Some results given as binding are weak or reduced against the parent protein; the word gives no strength. Sequences can lack the tags named with a protein.

Legend:
[1] = molecular target: T1, HSP90α peptide 251…260 (human); assay: peptide scanning ELISA, plates coated with 10-a.a. peptides
T1 sequence (peptide): ESEDKPEIED

[2] = molecular target: T2, HSP90α peptide 235…244 (human); assay: as above
T2 sequence (peptide): AEEKEDKEEE

[3] = molecular target: T1, HSP90α peptide 251…260 (human); assay: alanine-scanning peptide ELISA [d]
[4] = molecular target: T2, HSP90α peptide 235…244 (human); assay: alanine-scanning peptide ELISA [d]
[5] = molecular target: recombinant 732-amino acid full-length human HSP90α (rHSP90α; PeproTech) (human) (UniProt P07900); assay: summary sentence of the example; method not given
[6] = molecular target: T3, …; assay: peptide-scanning ELISA on plates coated with 10-a.a. peptides [c]
T3 sequence (peptide): EDKPEIEDVG

[7] = molecular target: T4, …; assay: as above; remark: listed apart in the source
T4 sequence (peptide): EKESEDKPEI

[8] = molecular target: T1, HSP90α peptide 251…260 (human); assay: as above
[9] = molecular target: T5, …; assay: as above; remark: listed apart in the source
T5 sequence (peptide): KEEKESEDKP

[10] = molecular target: T6, …; assay: as above; remark: listed apart in the source
T6 sequence (peptide): DEAEEKEDKE

[11] = molecular target: T2, HSP90α peptide 235…244 (human); assay: as above
[12] = molecular target: recombinant 732-amino acid full-length human HSP90α (rHSP90α; PeproTech) (human) (UniProt P07900); assay: SPR, Biacore T200: antibody captured on Protein A chip, rHSP90α injected [a]

binding [1]: binds | binding [2]: binds | binding [3]: binds | binding [4]: binds | binding [5]: binds | binding [6]: binds | binding [7]: binds | binding [8]: binds | binding [9]: binds | binding [10]: binds | binding [11]: binds | binding [12]: binds
B1: HH01 anti-HSP90α antibody (Clone-2-hA) (antibody, V domains shown)
VH: EVQLVESGGGLVQPGGSLRLSCAASGFTFKTYAMNWVRQAPGQGLEWVARIRSKSRNYATYYADSVKDRFTISRDDSKNQFYLQMNNLRTEDTAVYYCVVGGSGFDYWGQGTTLTVSS
VL: DVVMTQTPLSLPVSLGDQASISCRSSQSIVHSNGNTYLEWYLQKPGQSPQLLIYKVSNRFSGVPDRFSGSGSGTDFTLTISSVEAEDLGVYYCFQGSHVPWTFGGGTKLEIK
